Experimental data: patent US20180327746, “Alpha-AMYLASE-BINDING NUCLEIC ACID MOLECULE AND USE THEREOF” (NEC Solution Innovators, Ltd., published 2018)

Target: T1, alpha-amylase (in human saliva) (Homo sapiens) (UniProt P0DUB6)
T1 sequence (looked up, limits assumed): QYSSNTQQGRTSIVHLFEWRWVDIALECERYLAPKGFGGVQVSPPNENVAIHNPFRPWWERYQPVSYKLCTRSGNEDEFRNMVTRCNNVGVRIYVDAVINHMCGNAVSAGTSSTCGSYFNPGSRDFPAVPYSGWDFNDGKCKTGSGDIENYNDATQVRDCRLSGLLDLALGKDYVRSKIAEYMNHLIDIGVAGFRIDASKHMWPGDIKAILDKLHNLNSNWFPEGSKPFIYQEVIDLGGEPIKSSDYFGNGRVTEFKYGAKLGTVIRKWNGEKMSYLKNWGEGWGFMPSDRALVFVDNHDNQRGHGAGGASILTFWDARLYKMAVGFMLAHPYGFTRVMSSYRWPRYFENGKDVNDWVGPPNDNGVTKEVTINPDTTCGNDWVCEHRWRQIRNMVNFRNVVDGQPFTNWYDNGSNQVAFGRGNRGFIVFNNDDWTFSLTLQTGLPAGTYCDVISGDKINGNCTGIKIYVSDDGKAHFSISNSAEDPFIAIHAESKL
Assay: pull-down
Details: 90% saliva; primer-bound bead control; protein in an extract; label: 5' biotin; single-stranded DNA; variant of biotin-AML1243KR8m1 on SA beads

Sequence: GGATACCTTAACGCCGCCTATTG [biotinylated primer (5' region)]
- binding result: no binding

The exact form of at least one protein or probe is not confirmed. Results from cells or extracts need not show a direct contact. No signal at the amounts used counts as a negative. Tags and fusion partners may be left off the protein sequences shown.
